Assay results published in patent US20250289896A1.
Results are given in words; binding and its absence hold for the method and conditions named. Some binding calls cover weakened binding; strength is not graded here. Values belong to the binder of their own block, whether it stands above or below them.

The chains behind the UniProt entries cited, without tags or fusion partners. Where a name states a change or a piece, a line headed by the entry shows the natural chain unless it says otherwise. A line that says so, or that is headed by a name, gives the form on record, which may keep a tag or linker.
cynomolgus macaque CCR8 (G7NYJ2, form named): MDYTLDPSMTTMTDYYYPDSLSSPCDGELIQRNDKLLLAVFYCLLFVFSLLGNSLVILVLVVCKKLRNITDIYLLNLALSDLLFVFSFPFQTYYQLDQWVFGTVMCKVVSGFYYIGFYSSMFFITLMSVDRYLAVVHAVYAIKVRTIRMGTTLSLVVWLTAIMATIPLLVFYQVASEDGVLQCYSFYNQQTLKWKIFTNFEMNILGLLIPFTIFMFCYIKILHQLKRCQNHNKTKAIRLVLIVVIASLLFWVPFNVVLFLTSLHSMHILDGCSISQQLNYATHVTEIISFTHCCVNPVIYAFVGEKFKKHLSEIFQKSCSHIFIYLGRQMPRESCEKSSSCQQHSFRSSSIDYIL

Molecular target: cynomolgus macaque CCR8 (cynomolgus macaque) (UniProt G7NYJ2)
Test: flow cytometry, 293T cells overexpressing cynomolgus CCR8

- binding: binds
B1: ABC1183 (antibody, human IgG1, kappa, V domains shown)
VH: EVQLLESGGGLVQPGGSLRLSCAASGFSFSDYYMAWVRQAPGKGLEWVASISNAGTKTYYGDSVKGRFTISRDDSKNTLYLQMNSLRAEDTAVYYCVRQDLYYGRNQYWYFDFWGRGTLVTVSS
VL: DIQMTQSPSSLSASVGDRVTITCKASQSVGSNVDWYQQKPGKSPKLLIYKTSSRFTGVPSRFSGSGSRTDFTLTISSLQPEDFATYYCVQSNSYPYTFGAGTKLELKR

- binding: binds
B2: ABC822 (antibody, human IgG1, kappa, V domains shown)
VH: EVQLVESGGGLMQPGRSLKLSCAASGFSFSDYYMAWVRQAPKKGLEWVASISNAGTKTYYGDSVKGRFTISRDDAKSTLYLQMNSLRSEDTATYYCVRQDLYYGRNQYWYFDFWGPGTMVTVSS
VL: IVMTQSPTSMSKSVGDRVTMNCKASQSVGSNVDWYQQKTGQSPKLLIYKTSSRFTGVPDRFTGSGSRTDFTFTISSMQAEDLALYYCVQSNSYPYTFGAGTKLELKR
